Holding throughout (experiment): DAPPL (digital affinity profiling via proximity ligation, sequencing)
Holding throughout (settings): 10 mM Tris-HCl pH 7.5, 50 mM NaCl, 1 mM DTT, 4% glycerol, room temperature, 30 min; GST-TFs on glutathione beads, 16-mer random dsDNA library, 0.1% …; high values mean tight binding; double strand, one strand shown; scale: fold enrichment (6-mer frequency, TF over GST control)

Assay [1] concerns the target T1, ELK1 (UniProt P19419).
T1 sequence: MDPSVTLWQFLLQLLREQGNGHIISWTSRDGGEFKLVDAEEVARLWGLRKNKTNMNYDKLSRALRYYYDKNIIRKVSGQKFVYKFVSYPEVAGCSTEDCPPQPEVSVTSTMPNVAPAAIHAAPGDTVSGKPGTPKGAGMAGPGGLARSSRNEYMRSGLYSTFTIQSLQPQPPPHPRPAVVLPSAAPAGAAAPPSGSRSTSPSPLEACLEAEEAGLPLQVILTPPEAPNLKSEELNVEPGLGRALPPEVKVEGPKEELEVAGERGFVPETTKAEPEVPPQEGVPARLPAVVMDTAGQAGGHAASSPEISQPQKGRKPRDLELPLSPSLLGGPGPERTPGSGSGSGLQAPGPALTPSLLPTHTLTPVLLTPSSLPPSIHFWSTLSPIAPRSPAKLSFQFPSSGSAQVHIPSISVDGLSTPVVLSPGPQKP

Assay [2] has as its target T2, ELK3 (UniProt P41970).
T2 sequence: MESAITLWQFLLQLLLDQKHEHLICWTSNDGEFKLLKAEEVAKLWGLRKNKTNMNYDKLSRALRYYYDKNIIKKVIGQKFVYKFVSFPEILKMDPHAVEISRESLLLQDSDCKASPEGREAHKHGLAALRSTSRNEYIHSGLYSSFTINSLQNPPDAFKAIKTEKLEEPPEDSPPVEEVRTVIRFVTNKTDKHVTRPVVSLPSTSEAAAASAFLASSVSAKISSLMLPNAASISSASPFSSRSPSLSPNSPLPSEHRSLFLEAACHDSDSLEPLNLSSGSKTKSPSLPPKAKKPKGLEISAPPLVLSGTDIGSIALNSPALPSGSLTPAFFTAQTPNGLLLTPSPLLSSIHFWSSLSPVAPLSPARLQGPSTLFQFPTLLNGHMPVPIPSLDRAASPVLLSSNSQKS

Assay [3] concerns the target T3, SPIC (UniProt Q8N5J4).
T3 sequence: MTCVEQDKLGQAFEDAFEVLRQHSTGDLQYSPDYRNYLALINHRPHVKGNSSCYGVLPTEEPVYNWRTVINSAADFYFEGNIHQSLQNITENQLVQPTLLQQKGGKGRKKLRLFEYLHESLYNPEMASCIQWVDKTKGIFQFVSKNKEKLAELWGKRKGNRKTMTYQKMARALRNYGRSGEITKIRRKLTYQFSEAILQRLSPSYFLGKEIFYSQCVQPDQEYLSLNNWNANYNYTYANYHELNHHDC

The target in assay [4] is T4, ETS2 (UniProt P15036).
T4 sequence: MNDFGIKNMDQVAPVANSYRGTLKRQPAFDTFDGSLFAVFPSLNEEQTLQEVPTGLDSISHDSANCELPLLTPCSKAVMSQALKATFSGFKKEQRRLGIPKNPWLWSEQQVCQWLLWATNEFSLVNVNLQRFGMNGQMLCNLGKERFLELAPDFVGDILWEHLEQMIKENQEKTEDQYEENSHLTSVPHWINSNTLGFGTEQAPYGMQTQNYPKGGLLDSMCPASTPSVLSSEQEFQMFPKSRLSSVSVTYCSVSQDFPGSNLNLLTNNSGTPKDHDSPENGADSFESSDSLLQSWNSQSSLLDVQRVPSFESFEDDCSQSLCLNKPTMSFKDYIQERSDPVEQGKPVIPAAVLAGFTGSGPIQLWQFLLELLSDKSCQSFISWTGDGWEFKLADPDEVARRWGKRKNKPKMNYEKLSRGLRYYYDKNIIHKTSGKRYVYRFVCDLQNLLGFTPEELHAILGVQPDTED

In assay [5] the target is T5, ETV3 (UniProt P41162-2).
T5 sequence: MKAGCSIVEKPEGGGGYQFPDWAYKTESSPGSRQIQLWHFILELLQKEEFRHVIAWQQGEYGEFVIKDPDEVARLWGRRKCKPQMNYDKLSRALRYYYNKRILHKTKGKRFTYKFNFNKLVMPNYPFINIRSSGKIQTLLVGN

The entries are a selection whose mix differs from that of the whole data set. At the low end of the ranking the order means little.

As to GTGTAT, the binding signal in assay [1] was determined as 0.896; in assay [2] it was 0.848; in assay [3], 0.939; in assay [4], 0.946; in assay [5], 0.925.

With TAGCCG, the binding signal in assay [1] amounted to 0.857; in assay [2] it was 0.809; in assay [3], 0.86; in assay [4], 0.873; in assay [5], 0.872.

Turning to ACCGTA, the binding signal was 0.93 in assay [1]; 0.949 in assay [2]; 0.816 in assay [3]; 0.884 in assay [4]; 0.851 in assay [5].

Take GACGCT: the binding signal in assay [1] stood at 0.806; in assay [2], 0.742; in assay [3] it was 0.801; in assay [4] it was 0.789; in assay [5], 0.754.

For TTCGTG, the binding signal in assay [1] amounted to 0.974; in assay [2] it was 0.839; in assay [3], 0.837; in assay [4] it was 0.943; in assay [5], 0.934.

In the case of CGGTGG, the binding signal in assay [1] was found to be 0.699; in assay [2] it was 0.722; in assay [3] it was 0.549; in assay [4], 0.651; in assay [5], 0.657.

Take GTGTCG: the binding signal worked out at 0.654 in assay [1]; 0.572 in assay [2]; 0.571 in assay [3]; 0.625 in assay [4]; 0.634 in assay [5].

GGTCGT: the binding signal in assay [1] turned out to be 0.568; in assay [2], 0.596; in assay [3], 0.537; in assay [4] it was 0.645; in assay [5], 0.666.

As for GGGGCG, the binding signal in assay [1] was 0.611; in assay [2], 0.627; in assay [3] it was 0.594; in assay [4] it was 0.673; in assay [5], 0.572.

Regarding GATTGA, the binding signal in assay [1] is 1.01; in assay [2], 0.926; in assay [3], 0.931; in assay [4], 0.982; in assay [5], 0.947.

Take GCCGGG: the binding signal in assay [1] is 0.394; in assay [2], 0.401; in assay [3], 0.42; in assay [4], 0.389; in assay [5], 0.404.

Turning to CAGGGT, the binding signal was 0.875 in assay [1]; 0.751 in assay [2]; 0.763 in assay [3]; 0.859 in assay [4]; 0.79 in assay [5].

Turning to GACCAT, the binding signal worked out at 0.918 in assay [1]; 0.969 in assay [2]; 0.763 in assay [3]; 0.848 in assay [4]; 0.802 in assay [5].

Take GACGGT: the binding signal was 0.454 in assay [1]; 0.452 in assay [2]; 0.39 in assay [3]; 0.468 in assay [4]; 0.453 in assay [5].

In the case of GTGTGT, the binding signal in assay [1] worked out at 0.484; in assay [2] it was 0.543; in assay [3], 0.454; in assay [4] it was 0.586; in assay [5], 0.51.

Take GAGATG: the binding signal in assay [1] stood at 0.722; in assay [2], 0.617; in assay [3] it was 0.771; in assay [4] it was 0.648; in assay [5], 0.72.

Regarding TGTCGA, the binding signal is 0.824 in assay [1]; 0.915 in assay [2]; 0.737 in assay [3]; 0.805 in assay [4]; 0.763 in assay [5].

As to CCCGAG, the binding signal came out at 0.884 in assay [1]; 0.805 in assay [2]; 0.663 in assay [3]; 0.86 in assay [4]; 0.786 in assay [5].

On to GCGCAG, for which the binding signal was found to be 0.813 in assay [1]; 0.858 in assay [2]; 0.844 in assay [3]; 0.782 in assay [4]; 0.854 in assay [5].

With AGCCGA, the binding signal in assay [1] was found to be 0.83; in assay [2] it was 0.84; in assay [3] it was 0.794; in assay [4] it was 0.773; in assay [5], 0.88.

For GCCGTA, the binding signal in assay [1] came out at 0.837; in assay [2] it was 0.847; in assay [3] it was 0.661; in assay [4] it was 0.766; in assay [5], 0.896.

In the case of AGCGCA, the binding signal in assay [1] worked out at 0.938; in assay [2], 0.943; in assay [3], 0.848; in assay [4] it was 0.963; in assay [5], 0.992.

CGGGGC: the binding signal came to 0.592 in assay [1]; 0.591 in assay [2]; 0.555 in assay [3]; 0.569 in assay [4]; 0.555 in assay [5].

On to CGTGCA, for which the binding signal in assay [1] is 0.707; in assay [2] it was 0.802; in assay [3], 0.709; in assay [4], 0.688; in assay [5] it was 0.67.

Take AGTGAT: the binding signal worked out at 0.902 in assay [1]; 0.947 in assay [2]; 0.9 in assay [3]; 0.88 in assay [4]; 0.876 in assay [5].

For GGGGGC, the binding signal in assay [1] was 0.594; in assay [2], 0.587; in assay [3], 0.612; in assay [4], 0.652; in assay [5], 0.59.

For CCGTGC, the binding signal in assay [1] came to 0.593; in assay [2], 0.616; in assay [3], 0.635; in assay [4], 0.581; in assay [5] it was 0.583.

For the sequence GTCTGC, the binding signal was 0.999 in assay [1]; 0.837 in assay [2]; 0.793 in assay [3]; 0.944 in assay [4]; 0.813 in assay [5].

In the case of GAACGT, the binding signal in assay [1] turned out to be 0.38; in assay [2], 0.451; in assay [3], 0.512; in assay [4] it was 0.425; in assay [5] it was 0.41.

Regarding GCCACG, the binding signal in assay [1] stood at 0.872; in assay [2], 1.03; in assay [3], 0.958; in assay [4], 0.953; in assay [5], 0.919.

(Values after PMC7862700.)
